# Experimental data from PubChem BioAssay AID540303 (National Center for Advancing Translational Sciences (NCATS), 2011).
# In all, about 330,000 compounds went through this assay and about 1,000 (0.3%) were called active. Inconclusive results, whose numbers are uncertain, are shown with a selection of clear calls. The call rests on the fitted dose curve; in most records, active means well fitted inhibition curve with a large enough effect; inconclusive means small, poorly fitted or top-dose-only effect; inactive means no such curve, though single readings can be large or run the other way; tested in mouse RAW 264.7 cells. Potencies beside an inconclusive call are fits to weak or partial responses and may not hold up.
# Assay: qHTS for Inhibitors of Cell Surface uPA Generation; further: nearly all actives have a fitted effect of over 55% in size
# Conditions: cell surface uPA generation assay; series mostly up to 38.3 µM; activity change, negative = inhibition: at the top concentration
# How it was run: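 Using RAW 264.7 macrophages, the screen measures whether compounds keep cellular ATP up by preventing uPA-driven LF translocation. Treatment lasted 24 h at 37 C, with a final top concentration of 38.3 uM, and luminescence was the readout.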
# On the % scale 0 is the no-effect control and ±100 the full control effect; potency means the concentration at half of the fitted maximal effect.
Structure (SMILES),"activity change, negative = inhibition",Potency
O=C(Nc1nc2ccccc2n1CCN1CCOCC1)c1ccc(Cn2cc([N+](=O)[O-])cn2)o1,inactive: -3.8%,
O=C(CCN1C(=O)/C(=C/c2ccccc2Cl)SC1=S)N1CCOCC1,,"inconclusive: 1.78 µM [inhibitor, full curve, poor fit]"
COc1ccc2c(c1)OC(=O)CC2c1cc(OC)c(OC)c(OC)c1 (configuration not stated),,"inconclusive: 14.1 µM [inhibitor, single point]"
O=C(COc1ccc(Br)cc1CO)Nc1ccc(S(=O)(=O)N2CCCCC2)cc1,,"inconclusive: 6.31 µM [inhibitor, single point]"
NS(=O)(=O)c1ccc(CNC(=S)NCc2ccc(F)cc2)cc1,inactive: 6.83%,
Cc1ccc(Nc2ccc([N+](=O)[O-])nc2[N+](=O)[O-])cc1,,"inconclusive: 10 µM [inhibitor, partial curve, poor fit]"
O=[N+]([O-])c1ccc(-c2cnc(SC(c3ccccc3)c3ccccc3)[nH]2)cc1,inactive: -12.5%,
Cc1ccc(NC(=O)CSCC(=O)Nc2cc(S(=O)(=O)N3CCOCC3)ccc2OC(C)C)cc1,,"inconclusive: 3.16 µM [inhibitor, single point]"
Cc1ccc(OCCCC(=O)Nc2ccc(Cl)c(S(=O)(=O)N3CCOCC3)c2)cc1,,"inconclusive: 10 µM [inhibitor, partial curve]"
NC1=NC(c2ccc(Cl)cc2)C(C(=O)c2ccccc2)N1 (configuration not stated),,"inconclusive: 12.6 µM [inhibitor, single point]"
O=C(COC(=O)c1ccco1)c1ccccc1,inactive: 1.91%,
O=C(NC1CCCC1)c1cc(-c2cccs2)on1,,"inconclusive: 3.55 µM [inhibitor, partial curve, poor fit]"
COc1ccc(-c2ccc([C@H]3[C@@H]4C=CCC[C@@]4(C)C(=O)N3Cc3ccccc3)c(F)c2)cc1,,"inconclusive: 12.6 µM [inhibitor, single point]"
CN(c1ccc(OC(=O)c2ccc(-n3cncn3)c([N+](=O)[O-])c2)cc1)S(=O)(=O)c1ccccc1,,"inconclusive: 3.16 µM [inhibitor, partial curve, poor fit]"
Cc1cc(/C=C(\C#N)C(=O)N2CCOCC2)c(C)n1C1CCCC1,,"inconclusive: 5.62 µM [inhibitor, partial curve]"
COc1ccc(-n2cnc3ccccc3c2=O)c([N+](=O)[O-])c1,,"inconclusive: 10 µM [inhibitor, partial curve, poor fit]"
COc1ccc(Nc2c([N+](=O)[O-])ccc3c2=NC2(CCCCC2)N=3)cc1,inactive: -12.4%,
COc1cc2sc3ccc(-c4ccc(N(C)C)nc4)cc3c(=O)c2cc1OC,,"inconclusive: 3.98 µM [inhibitor, partial curve, poor fit]"
Cn1c(=O)n(C)c2cc(S(=O)(=O)N3CCCc4ccccc43)ccc21,,"inconclusive: 7.94 µM [inhibitor, single point]"
CC1=CC(C)(C)N(S(=O)(=O)c2ccc(C)cc2)c2ccc(C)cc21,,"inconclusive: 2.24 µM [inhibitor, full curve]"
O=C(N/N=C/c1ccccc1O)c1ccncc1,,active: 7.08 µM

# Exported tab-delimited: two of the compounds above.
Structure (SMILES)	activity change, negative = inhibition	Potency
COc1ccc(-n2cnc3ccccc3c2=O)c([N+](=O)[O-])c1		inconclusive: 10 µM [inhibitor, partial curve, poor fit]
COc1ccc(Nc2c([N+](=O)[O-])ccc3c2=NC2(CCCCC2)N=3)cc1	inactive: -12.4%	

# One compound at a time, from the list above.
# CC1=CC(C)(C)N(S(=O)(=O)c2ccc(C)cc2)c2ccc(C)cc21 is listed as Potency: inconclusive: 2.24 µM [inhibitor, full curve]
# Cc1ccc(OCCCC(=O)Nc2ccc(Cl)c(S(=O)(=O)N3CCOCC3)c2)cc1 is listed as Potency: inconclusive: 10 µM [inhibitor, partial curve]

# Continuation:

Structure (SMILES),"activity change, negative = inhibition",Potency
CCOC(=O)c1cc(NC(=O)C2C3CCC(O3)C2C(=O)O)cc(C(=O)OCC)c1 (configuration not stated),,"inconclusive: 4.47 µM [inhibitor, partial curve, poor fit]"
COc1cc(-c2c(-c3ccc4c(c3)OCO4)noc2C)ccc1F,,"inconclusive: 11.2 µM [inhibitor, partial curve, poor fit]"
Cc1ccc(-c2nc(C(Cl)Cl)c3ccccc3n2)cc1,,active: 1 µM
COc1ccc(C(=O)Nc2cccc3c2CCCC3)cc1,,"inconclusive: 6.31 µM [inhibitor, partial curve, poor fit]"
CC(C)(C)NC(=O)C(=O)NNC(=O)c1ccco1,,"inconclusive: 3.55 µM [inhibitor, full curve, poor fit]"
CC1(C)C(=O)Nc2ccccc2N1C(=O)COC(=O)CNS(=O)(=O)c1ccc(F)c(F)c1F,,"inconclusive: 1 µM [inhibitor, single point]"
CCc1ccc(NC(=O)c2ccc(F)c(S(=O)(=O)NCC3COc4ccccc4O3)c2)cc1 (configuration not stated),,"inconclusive: 12.6 µM [inhibitor, single point]"
COc1ccc(S(=O)(=O)N2CCc3ccccc32)cc1[N+](=O)[O-],,"inconclusive: 8.91 µM [inhibitor, single point]"
O=C(NCC(c1cccs1)N1CCOCC1)c1ccc(OCc2ccccc2)cc1 (configuration not stated),inactive: 5.32%,
CC(=O)c1c(C)[nH]c(C(=O)COC(=O)CCNS(=O)(=O)c2ccc(C)c(C)c2)c1C,,"inconclusive: 1 µM [inhibitor, partial curve, poor fit]"
O=C(OCc1c(-c2ccccc2)ncc2ccccc12)N1CCOCC1,,"inconclusive: 8.91 µM [inhibitor, partial curve]"
Cc1ccc(C(=O)Nc2nc(-c3ccccn3)cs2)o1,,"inconclusive: 10 µM [inhibitor, partial curve, poor fit]"
COc1ccc(CCNC(=O)Nc2cc(F)c(F)cc2Cl)cc1OC,inactive: 6.78%,
O=C(Nc1cccc(O)c1)c1noc2c1CCCCC2,,"inconclusive: 8.91 µM [inhibitor, partial curve, poor fit]"
COc1ccccc1C(=O)O/N=C(\N)c1ccccc1Cl,,"inconclusive: 8.91 µM [inhibitor, partial curve, poor fit]"
COc1cc(OC)c2c(-c3cccc(-c4ccc(OC)c(OC)c4)c3)cc(=O)oc2c1,,"inconclusive: 0.708 µM [inhibitor, full curve, poor fit]"
COC(=O)c1sc(-c2ccc(C(C)(C)C)cc2)cc1NC(=O)CCC(=O)O,,"inconclusive: 31.6 µM [inhibitor, single point]"
Cc1nnc(N/N=C\c2ccc(-c3cccc(C(=O)O)c3)o2)n1N,,"inconclusive: 12.6 µM [inhibitor, partial curve, poor fit]"
COc1ccc(-n2nc3c(N4CCC(C(=O)NCc5cccc(C)c5)CC4)nnc(C)c3c2C)cc1,,"inconclusive: 0.562 µM [inhibitor, partial curve, poor fit]"
c1cncc(-c2nc3cc4ccccc4cc3[nH]2)c1,,"inconclusive: 3.16 µM [inhibitor, partial curve]"
COC(=O)C1=C(C(=O)OC)[C@@H]2N(C)c3ccccc3[C@@]23C[C@@H](C(=O)OC)N(C(=O)c2cc(C)oc2C)C3=N1,,"inconclusive: 2.24 µM [inhibitor, partial curve]"

Structure (SMILES),"activity change, negative = inhibition",Potency
CCN(CC)S(=O)(=O)c1ccc(N2CCOCC2)c(NC(=O)COc2ccccc2C#N)c1,,"inconclusive: 2.82 µM [inhibitor, single point]"
COc1ccccc1/C=C/C(=O)N1CCc2cc(OC)c(OC)cc2C1C (configuration not stated),inactive: -5.71%,
COCCCNC(=O)c1cc2c(=O)n(C)c3ccccc3c2n1C,,"inconclusive: 10 µM [inhibitor, partial curve]"
CCOC(=O)Cn1cnc2c(sc3nc(C)cc(C)c32)c1=O,inactive: 7.45%,
CC(C)c1ccc(C2(C)NC(=O)N(CC(=O)NC3CCCC(C)C3C)C2=O)cc1 (configuration not stated),,"inconclusive: 8.91 µM [inhibitor, single point]"
O=C(N/N=C/c1ccccn1)c1cc(-c2ccccc2)nc2ccccc12,,"inconclusive: 12.6 µM [inhibitor, single point]"
CCN(CC)c1ccc(NC(=O)CCS(=O)(=O)c2ccc(Br)cc2)c(C)c1,inactive: 3.35%,
O=C1C(Cl)=C(NCCN2CCCCC2)C(=O)c2ccccc21,,"inconclusive: 10 µM [inhibitor, partial curve, poor fit]"
CC(=O)c1ccccc1-c1csc2ncnc(Sc3nnnn3C)c12,,"inconclusive: 10 µM [inhibitor, partial curve, poor fit]"
CCOc1ccc2c(c1)c(N=O)c(O)n2C,inactive: -4.2%,
CCNc1nc(NC(C)C)nc(NC(C)(C)C)n1,,"inconclusive: 8.91 µM [inhibitor, partial curve, poor fit]"
CC[C@]12c3[nH]c4cc(CCC(=O)N(C)C)ccc4c3CCN1C(=O)[C@@H](CC(=O)NC(C)(C)C)C[C@@H]2C(=O)N1CCN(C(=O)c2ccco2)CC1,inactive: 18.5%,
CC[C@]12CCCN3CCc4c(n(c5ccccc45)C(=O)C1)[C@@H]32,,active: 3.16 µM
COC(=O)CNC(c1ccccc1)c1cc(Br)ccc1NC(=O)CCN1CCOCC1 (configuration not stated),,"inconclusive: 7.94 µM [inhibitor, partial curve, poor fit]"
CC(C)CC(=O)NC(=S)N1CCN(c2ccc([N+](=O)[O-])cc2Cl)CC1,,"inconclusive: 2.24 µM [inhibitor, full curve, poor fit]"
CCN(CC)CCNC(=O)c1ccc2c(c1NCCO)C(=O)c1ccccc1C2=O,,"inconclusive: 1.12 µM [inhibitor, full curve, poor fit]"
O=C(NCCn1cc(SCc2ccc(F)cc2)c2ccccc21)c1ccccc1F,,"inconclusive: 12.6 µM [inhibitor, single point]"
C[C@H](CO)N1C[C@H](C)[C@@H](CN(C)Cc2ccncc2)Oc2c(NC(=O)Cc3ccccc3)cccc2C1=O,,"inconclusive: 7.08 µM [inhibitor, partial curve, poor fit]"
COc1ccc(NC(=O)CSc2nnc(Cc3cccn3C)n2CCc2ccccc2)c(OC)c1,,"inconclusive: 12.6 µM [inhibitor, partial curve, poor fit]"
Cn1c(SCC(=O)NCC2CCCO2)ncc(C(=O)Nc2ccccc2)c1=O (configuration not stated),,"inconclusive: 11.2 µM [inhibitor, partial curve, poor fit]"
